Here are results for 2 compounds from patent publication US11168052B2, “Carbamate derivative compounds, processes for preparing them and their uses” (BIO-PHARM SOLUTIONS CO., LTD., priority 2016, dated 2021).

Data set [1] relates to MES (electroshock) seizure in mice. As to the kind of experiment: Anti-epilepsy activity, MES test in mouse. The class given is in vivo, ICR mice. Here is the method:
(§1) In the MES test (Ref., G. Villetti et al. Neuropharmacology 40(2001) 866-878), an electrical stimulus (mice: 50 mA, 60 Hz, 0.2 sec, and rats: 150 mA, 60 Hz, 0.2 sec in the test animal) supplied by an 11A Shocker (IITC Life Science Company) was delivered through corneal electrodes. All mice or rats assigned to any electroshock at peak time were treated with each test compound sample which was dissolved in 20% tween 80 prepared by saline solvent applied orally before the test. […] Three doses of the test sample were administered orally to 9-18 animals (3-6 mice per dose) for evaluating the respective doses at which 50% of the animals were protected from seizure (ED50). The ED50 value (median effective dose) was calculated by Litchfield and Wicoxon log-probit method which is a dose-response relationship. Experimental animals, male ICR mice and male SD rats, were purchased from OrientBio, Samtako, or Nara Biotech, Korea, and housed in cages (4-5 mice or 3 rats per cage) for 4-5 days. The range of mice body weight was between 19 and 25 grams and range of rats body weight was between 100 and 130 grams.

For data set [2], the system named is corneally kindled rats. As to the kind of experiment: Corneal kindling (CK) rat model. The conditions noted are these: p.o. The class given is in vivo, Sprague-Dawley rats. An excerpt:
Male Sprague-Dawley rats (purchased from Orient Bio Inc. Korea) of body weight 85-100 g were used for these studies. The MES test using the electroshock seizure apparatus designed by Rodent Shocker Type221 (Hugo Sachs Elektronik, Germany). The kindled rat models were electrically stimulated (8 mA, 60 Hz, 2 s, corneal electrodes) twice daily for 21 days until stage 5 seizure scored by Racine's scale (Racine, 1972) were evoked. The kindled rats were fasted and adapted to test condition, for at least 1 hour before the administration of test material. The drugs were administered orally (p.o.) in a volume of 4 μl/g body weight. The corneally kindled rat model test is a model for generalized […] seizures or bipolar disorder and identifies the compound which prevents seizure or bipolar disorder spread. The shock level was set at 8 mA, 60 Hz and the duration was set at 2 s. A drop of 0.9% saline was placed in each eye, the electrodes were placed over the eyes, and the shock was administered immediately. Pharmacological effects of the test materials were evaluated to compare the test groups (n=6) with a control group (n=6). Control group was administrated vehicle, only. The peak time was determined by administration test material's random dose for 0.5, 1, 2, 4 hour. The time that the most protect was defined peak time and ED50 was determined by other dose administration at peak time. […]

Data set [3] deals with CFA-induced pain model in rats. As to the kind of experiment: Antiallodynic activity on Complete Freund's Adjuvant (CFA)-induced inflammatory pain model. The class given is in vivo, Sprague-Dawley rats. The note with it: intraperitoneally. As for the experimental part:
Male, Sprague-Dawley rats (210-250 g, Nara Bio, Korea) were habituated for 1 week before surgery and allowed free access to food and water throughout the experimentation. Room temperature and humidity were maintained at 24±2 and 50±10%, respectively.
CFA-induced inflammatory pain was induced by the procedure of Nagakura et al. (2003) and Gregory P. et al. (2010) with minor modifications. CFA (sigma, USA) was injected in the right plantar with a 100 ul volume under gaseous anesthesia with isoflurane. Sham controls were injected with 100 ul of saline, and preparation of the vehicle controls were identical to the group treated with compound, except for administration of vehicles without indentical to the vihecle control group.
Tactile sensitivity (Mechanical allodynia) was evaluated using von Frey monofilaments before and after treatment, and animals were include in the study only if the withdrawal threshold value was less than 4 g. One week after CFA injection, CFA-infused animals, sham-operated animal, and vehicle-operated animals were tested for tactile sensitivity with von Frey monofilaments, with 3 trials for each animal. All Animals were placed in a stainless steel mashe chamber and habituated for 30 min in the test cage. The tactile sensitivity for ipsilateral hind paw was measured using the up-and-down method (Dixon, 1980) with seven von Frey monofilaments (0.4, 1, 2, 4, 6, 8, and 15 g) to 3 trials. The tactile sensitivity test was followed by Dixon's method (Dixon, 1980). The 50% paw withdrawal threshold for each paw was calculated using the following formula: [Xth]log=[vFr]log+ky where [vFr] is the force of the last von Frey used, k=0.2249 which is the average interval (in log units) between the von Frey monofilaments, and y is a value that depends upon the pattern of withdrawal responses (Dixon, 1980).
Antiallodynic effect of compounds was evaluated at the dose of 50 mg/kg (n=4-6), intraperitoneally administrated in a volume of 5 ul/g bw in a vehicle of 30% (v/v) PEG or 20% (v/v) Tween 80. The test was performed peak time of efficacy (0.5 hr) after compound administration.
The relative values compared to the sham (% control) were calculated and shown in Table 5, which show an antiallodynic effect of Compound 1 on CFA-induced pain model in rats.

Data set [4] has as its system ICR mice on hot plate. Description: Hot-plate test. Type of data set: in vivo. The note with it: orally. As for the experimental part: To examine the pain relief effect of the carbamate compounds, a hot-plate test was conducted in referring to Current Protocols in Neuroscience; Behavioral Neuroscience Unit 8.9.
ICR mice (male, 25-28 g; Orient Bio, Korea) were habituated before test (in test room) for 1 hour. Animals were fasted 2 hr before administration of compounds. Compounds were orally administered at the three dose, 10 ul/g, by bodyweight (n=4-6/group). All compounds were dissolved in a vehicle of 30% (v/v) PEG 400 or 20% (v/v) Tween 80. The control group was treated the vehicle without compounds.
0.25-2.0 hr after the administration of compounds, the mice were put on a hot plate pre-heated to 55±1 (Hu, X. et al, 2008), and then, the withdrawal latency time was measured (cut-off time: 30 sec) until the point when each mouse was taking a paw off from the plate, shaking, licking a paw or hind leg, or jumping from the plate.

For data set [5], the system named is MES (electroshock) seizure in rats. Description: Anti-epilepsy activity, MES test in rats. Type of data set: in vivo, SD rats. As for the experimental part: as §1
Data set [6] concerns Lithium-pilocarpine induced seizure in rats. Description: Lithium-pilocarpine induced epilepsy test (LI-PILO), prevention test. The conditions noted are these: i.p. Type of data set: in vivo, Sprague-Dawley rats. As for the experimental part: Male Sprague-Dawley rats (purchased from Orient Bio Inc. Korea) of body weight 175 grams were used for these studies and 3 rats per cage were housed for 4-5 days. On the day prior to SE, rats received 127 mg/kg lithium chloride (Sigma, St. Louis, Mo., U.S.A.) intraperitoneally (i.p.). Approximately 18-20 h following this treatment, rats were given an i.p. injection of the concentration capable of inducing 97% intermittent convulsions pilocarpine(Sigma, 30-43 mg/kg). An i.p. injection of 2 mg/kg methyl-scopolamine (Sigma) was administered 30 min prior to pilocarpine to block the effects of the muscarinic agonist on peripheral cholinergic receptors. Test drugs were dissolved in 20% tween80 (Sigma).
The drugs were administered intraperitoneally (i.p.) in a volume of 2 μl/g body weight. Pharmacological effects of all of the test materials were evaluated to compare test groups (n=6) with a control group (n=6). Control group was administered vehicle only. The efficacy was measured 0.5, 1, 2, or 4 hours after the administration of the test material. The time point that the most animals were protected was defined as peak time and the ED50 was determined at peak time. The animals were then transferred to observation cages and observed continuously for 90 min Seizure was elicited in approximately 95% of the control group. Protection was defined as complete absence of seizure grade 3-5 (Racine scale; Racine, 1972) over the 90-min observation period. The effective dose of the compound necessary to protect 50% of the animals against seizures compared to controls (i.e., ED50) was determined by a curve fitting program (Excel 2007, Microsoft).

As to `NC(=O)O[C@@H]1Cc2cc(Cl)cc(Cl)c2[C@@H]1O` [Example 59, (1S, 2R)-5,7-dichloro-1-hydroxy-2,3-dihydro-1H-inden-2-yl carbamate], the “MES test (po) Peak time” value in data set [1] was found to be 2 h. Also, in data set [2], the “CK Peak Time” value is recorded as 4 h.

As to `NC(=O)O[C@H]1Cc2cccc(Cl)c2[C@H]1O` [Example 52, (1R, 2S)-7-chloro-1-hydroxy-2,3-dihydro-1H-inden-2-yl carbamate], in data set [3], the “CFA model Peak Time” value is 0.5 h. In data set [4], the “Hot-plate test Peak Time” value was determined as 0.5 h. The “MES test (po) Peak time” value in data set [1] was 0.5 h; in data set [5], 2 h. Also, in data set [6], the “Lithium pilocarpine model (pre) peak time” value is listed as 0.5 h.
